PMC12548386
No constants are given. Whether binding was seen depends on the method and setting. In cells and extracts the contact can be indirect. Some results given as binding are weak or reduced against the parent protein; the word gives no strength. For some assays here: Sequences can lack the tags named with a protein.

The chains behind the UniProt entries cited, without tags or fusion partners.
UniProt P52294: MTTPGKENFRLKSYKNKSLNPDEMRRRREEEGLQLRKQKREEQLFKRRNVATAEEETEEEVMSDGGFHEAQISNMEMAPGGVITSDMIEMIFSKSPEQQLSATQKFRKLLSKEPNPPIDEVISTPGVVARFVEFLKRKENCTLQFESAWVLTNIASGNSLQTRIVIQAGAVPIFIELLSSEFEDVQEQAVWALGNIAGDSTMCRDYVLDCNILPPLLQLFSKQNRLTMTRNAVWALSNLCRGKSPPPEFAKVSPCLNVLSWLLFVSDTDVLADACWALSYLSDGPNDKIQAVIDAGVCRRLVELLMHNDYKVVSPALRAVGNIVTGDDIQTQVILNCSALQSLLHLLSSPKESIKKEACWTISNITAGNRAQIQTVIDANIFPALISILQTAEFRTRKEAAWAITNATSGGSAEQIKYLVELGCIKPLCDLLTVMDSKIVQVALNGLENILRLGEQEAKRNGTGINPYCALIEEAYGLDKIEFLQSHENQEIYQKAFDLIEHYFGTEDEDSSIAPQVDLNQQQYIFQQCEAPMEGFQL
UniProt Q14974: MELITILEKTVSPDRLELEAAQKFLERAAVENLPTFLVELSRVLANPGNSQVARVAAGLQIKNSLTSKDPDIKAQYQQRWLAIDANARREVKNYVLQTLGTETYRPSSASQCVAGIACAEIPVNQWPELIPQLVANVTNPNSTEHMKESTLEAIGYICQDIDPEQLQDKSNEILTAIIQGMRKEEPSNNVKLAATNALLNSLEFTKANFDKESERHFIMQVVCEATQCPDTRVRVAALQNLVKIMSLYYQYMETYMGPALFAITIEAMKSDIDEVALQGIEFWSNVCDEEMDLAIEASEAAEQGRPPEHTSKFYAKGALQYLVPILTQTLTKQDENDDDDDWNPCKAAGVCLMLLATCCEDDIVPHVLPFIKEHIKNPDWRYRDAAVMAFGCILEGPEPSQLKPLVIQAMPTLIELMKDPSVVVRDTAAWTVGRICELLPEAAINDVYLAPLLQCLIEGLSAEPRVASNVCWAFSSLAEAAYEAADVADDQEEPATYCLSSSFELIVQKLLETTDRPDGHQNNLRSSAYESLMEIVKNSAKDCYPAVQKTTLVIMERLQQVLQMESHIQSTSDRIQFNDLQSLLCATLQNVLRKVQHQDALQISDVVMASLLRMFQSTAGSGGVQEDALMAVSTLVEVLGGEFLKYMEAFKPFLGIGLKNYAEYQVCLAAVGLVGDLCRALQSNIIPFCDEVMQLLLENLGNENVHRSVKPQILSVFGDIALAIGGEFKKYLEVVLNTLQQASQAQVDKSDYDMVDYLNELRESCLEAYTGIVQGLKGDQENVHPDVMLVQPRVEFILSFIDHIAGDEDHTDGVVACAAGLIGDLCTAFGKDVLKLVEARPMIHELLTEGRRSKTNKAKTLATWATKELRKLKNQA

T1: Myc-STAT1, P42224
T1 chain: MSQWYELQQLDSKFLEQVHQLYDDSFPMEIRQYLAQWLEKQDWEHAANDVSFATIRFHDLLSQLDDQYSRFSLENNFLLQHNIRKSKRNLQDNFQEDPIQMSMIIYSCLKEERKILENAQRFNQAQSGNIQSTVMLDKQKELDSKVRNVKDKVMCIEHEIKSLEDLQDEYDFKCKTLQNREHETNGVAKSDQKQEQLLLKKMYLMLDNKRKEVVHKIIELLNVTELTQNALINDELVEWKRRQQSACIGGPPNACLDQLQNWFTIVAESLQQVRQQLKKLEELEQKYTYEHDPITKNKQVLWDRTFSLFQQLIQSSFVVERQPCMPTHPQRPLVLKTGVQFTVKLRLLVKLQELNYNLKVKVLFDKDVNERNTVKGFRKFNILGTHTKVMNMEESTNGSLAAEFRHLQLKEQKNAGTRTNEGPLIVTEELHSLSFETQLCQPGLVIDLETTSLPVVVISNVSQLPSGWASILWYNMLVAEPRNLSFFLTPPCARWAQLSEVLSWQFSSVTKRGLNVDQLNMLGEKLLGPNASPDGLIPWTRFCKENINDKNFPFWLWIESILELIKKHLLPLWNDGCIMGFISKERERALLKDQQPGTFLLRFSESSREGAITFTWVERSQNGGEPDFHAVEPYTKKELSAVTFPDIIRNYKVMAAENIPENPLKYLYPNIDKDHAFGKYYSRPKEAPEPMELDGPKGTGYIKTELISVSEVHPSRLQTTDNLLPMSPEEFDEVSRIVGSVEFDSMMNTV

B1: IFN regulatory factor 9, Q00978 1-393 (protein)
chain: MASGRARCTRKLRNWVVEQVESGQFPGVCWDDTAKTMFRIPWKHAGKQDFREDQDAAFFKAWAIFKGKYKEGDTGGPAVWKTRLRCALNKSSEFKEVPERGRMDVAEPYKVYQLLPPGIVSGQPGTQKVPSKRQHSSVSSERKEEEDAMQNCTLSPSVLQDSLNNEEEGASGGAVHSDIGSSSSSSSPEPQEVTDTTEAPFQGDQRSLEFLLPPEPDYSLLLTFIYNGRVVGEAQVQSLDCRLVAEPSGSESSMEQVLFPKPGPLEPTQRLLSQLERGILVASNPRGLFVQRLCPIPISWNAPQAPPGPGPHLLPSNECVELFRTAYFCRDLVRYFQGLGPPPKFQVTLNFWEESHGSSHTPQNLITVKMEQAFARYLLEQTPEQQAAILSLV

Tests used:
Myc-tagged KPNA1 = Myc-tagged KPNA1 (UniProt P52294); assay: co-IP; HEK293 co-transfected with Myc-KPNA1 and Vec (HA) or HA-NS5, IFN-α 1,000 U/mL 30 min; IP with anti-Myc, IB with KPNB1 antibody
Myc-STAT1, P42224 = target: T1, Myc-STAT1, P42224; assay: co-IP; HeLa or HEK293 co-transfected with Myc-STAT1 and Vec (HA) or HA-NS5, IFN-α 1,000 U/mL 30 min; IP with Myc-tag antibody, IB with pSTAT2 and IRF9 antibodies; conditions: remark: other sources report otherwise

Molecule	binding (Myc-tagged KPNA1)	binding (Myc-STAT1, P42224)
KPNB1 (endogenous) (from UniProt Q14974 1-876)	binds	
B1		binds
